Reference: the supplement of paper PMC12823440, “Inhibitors supercharge kinase turnover through native proteolytic circuits” (Nature, 2025)
Some of the results follow. The calls rarely recur for the same compound in another form.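 In K562 cells expressing nanoluciferase-fused kinases, luminescence was recorded at 4 h intervals between 2 and 18 h, normalized as percent of control with DMSO at 100% and a positive control at 0%. A significant (2 sigma) signal drop marks a time point as decreased. The authors' rule for a hit is not shown and takes in more than the number of time points.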

Chains of the proteins cited; added tags and fusions are not shown. Lines headed by an entry give the natural chain unless they say otherwise; changes in a name come on top.
UniProt P49137, whole entry, looked up: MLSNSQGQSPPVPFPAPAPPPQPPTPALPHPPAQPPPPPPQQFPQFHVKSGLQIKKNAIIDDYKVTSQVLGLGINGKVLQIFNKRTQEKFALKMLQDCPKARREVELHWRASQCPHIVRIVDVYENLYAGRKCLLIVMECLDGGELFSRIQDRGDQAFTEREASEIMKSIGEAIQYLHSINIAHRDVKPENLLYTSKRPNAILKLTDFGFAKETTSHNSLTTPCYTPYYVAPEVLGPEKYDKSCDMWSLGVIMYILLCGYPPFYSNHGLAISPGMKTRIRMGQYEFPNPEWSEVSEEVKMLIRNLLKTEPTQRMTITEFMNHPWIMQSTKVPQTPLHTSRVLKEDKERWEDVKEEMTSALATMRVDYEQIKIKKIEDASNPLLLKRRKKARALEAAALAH
UniProt Q16620, whole entry, looked up: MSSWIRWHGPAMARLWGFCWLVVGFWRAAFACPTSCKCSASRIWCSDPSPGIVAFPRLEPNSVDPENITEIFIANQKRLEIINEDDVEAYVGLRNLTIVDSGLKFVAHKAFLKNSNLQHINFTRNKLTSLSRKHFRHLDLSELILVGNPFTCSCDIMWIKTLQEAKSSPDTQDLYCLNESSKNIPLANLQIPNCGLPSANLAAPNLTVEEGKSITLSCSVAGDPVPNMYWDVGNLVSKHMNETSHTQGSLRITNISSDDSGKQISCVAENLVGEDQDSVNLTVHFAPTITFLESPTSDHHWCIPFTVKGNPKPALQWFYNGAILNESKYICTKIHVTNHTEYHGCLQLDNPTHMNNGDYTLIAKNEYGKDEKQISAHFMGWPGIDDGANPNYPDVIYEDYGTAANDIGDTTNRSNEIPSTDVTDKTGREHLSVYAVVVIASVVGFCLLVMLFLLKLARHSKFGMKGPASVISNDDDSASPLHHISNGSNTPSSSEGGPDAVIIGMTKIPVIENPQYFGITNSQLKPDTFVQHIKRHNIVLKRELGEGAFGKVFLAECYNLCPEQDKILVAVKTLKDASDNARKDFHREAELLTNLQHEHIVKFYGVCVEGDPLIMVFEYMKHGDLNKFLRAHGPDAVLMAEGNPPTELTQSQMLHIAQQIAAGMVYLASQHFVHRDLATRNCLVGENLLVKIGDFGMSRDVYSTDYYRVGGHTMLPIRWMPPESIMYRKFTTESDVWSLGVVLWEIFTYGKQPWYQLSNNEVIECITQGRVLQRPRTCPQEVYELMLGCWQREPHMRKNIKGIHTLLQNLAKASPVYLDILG
UniProt O96013: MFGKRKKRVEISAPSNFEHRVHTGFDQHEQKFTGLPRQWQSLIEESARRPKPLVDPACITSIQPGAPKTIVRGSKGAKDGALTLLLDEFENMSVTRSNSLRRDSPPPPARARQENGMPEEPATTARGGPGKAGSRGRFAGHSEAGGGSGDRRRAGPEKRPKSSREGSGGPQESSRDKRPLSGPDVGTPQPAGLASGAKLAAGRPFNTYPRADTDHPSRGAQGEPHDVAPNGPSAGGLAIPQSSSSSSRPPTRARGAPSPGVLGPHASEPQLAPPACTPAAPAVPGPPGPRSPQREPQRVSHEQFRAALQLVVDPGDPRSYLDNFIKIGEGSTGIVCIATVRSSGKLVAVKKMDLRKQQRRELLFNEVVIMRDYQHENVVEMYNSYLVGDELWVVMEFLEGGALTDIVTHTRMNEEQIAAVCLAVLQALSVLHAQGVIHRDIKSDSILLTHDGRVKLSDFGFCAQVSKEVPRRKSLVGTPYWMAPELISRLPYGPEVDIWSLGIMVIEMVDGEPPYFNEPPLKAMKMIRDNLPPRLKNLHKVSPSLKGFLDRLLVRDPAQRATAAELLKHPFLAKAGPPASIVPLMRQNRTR
UniProt Q96KB5: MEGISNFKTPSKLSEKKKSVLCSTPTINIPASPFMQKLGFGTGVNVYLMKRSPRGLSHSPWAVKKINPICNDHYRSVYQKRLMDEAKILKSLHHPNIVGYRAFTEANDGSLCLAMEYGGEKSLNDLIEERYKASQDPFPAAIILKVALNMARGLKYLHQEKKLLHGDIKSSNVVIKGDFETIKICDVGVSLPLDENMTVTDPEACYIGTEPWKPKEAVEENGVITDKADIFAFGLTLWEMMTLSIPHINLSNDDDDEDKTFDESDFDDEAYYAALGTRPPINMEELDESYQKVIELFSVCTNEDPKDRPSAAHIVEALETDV
UniProt P09619, whole entry: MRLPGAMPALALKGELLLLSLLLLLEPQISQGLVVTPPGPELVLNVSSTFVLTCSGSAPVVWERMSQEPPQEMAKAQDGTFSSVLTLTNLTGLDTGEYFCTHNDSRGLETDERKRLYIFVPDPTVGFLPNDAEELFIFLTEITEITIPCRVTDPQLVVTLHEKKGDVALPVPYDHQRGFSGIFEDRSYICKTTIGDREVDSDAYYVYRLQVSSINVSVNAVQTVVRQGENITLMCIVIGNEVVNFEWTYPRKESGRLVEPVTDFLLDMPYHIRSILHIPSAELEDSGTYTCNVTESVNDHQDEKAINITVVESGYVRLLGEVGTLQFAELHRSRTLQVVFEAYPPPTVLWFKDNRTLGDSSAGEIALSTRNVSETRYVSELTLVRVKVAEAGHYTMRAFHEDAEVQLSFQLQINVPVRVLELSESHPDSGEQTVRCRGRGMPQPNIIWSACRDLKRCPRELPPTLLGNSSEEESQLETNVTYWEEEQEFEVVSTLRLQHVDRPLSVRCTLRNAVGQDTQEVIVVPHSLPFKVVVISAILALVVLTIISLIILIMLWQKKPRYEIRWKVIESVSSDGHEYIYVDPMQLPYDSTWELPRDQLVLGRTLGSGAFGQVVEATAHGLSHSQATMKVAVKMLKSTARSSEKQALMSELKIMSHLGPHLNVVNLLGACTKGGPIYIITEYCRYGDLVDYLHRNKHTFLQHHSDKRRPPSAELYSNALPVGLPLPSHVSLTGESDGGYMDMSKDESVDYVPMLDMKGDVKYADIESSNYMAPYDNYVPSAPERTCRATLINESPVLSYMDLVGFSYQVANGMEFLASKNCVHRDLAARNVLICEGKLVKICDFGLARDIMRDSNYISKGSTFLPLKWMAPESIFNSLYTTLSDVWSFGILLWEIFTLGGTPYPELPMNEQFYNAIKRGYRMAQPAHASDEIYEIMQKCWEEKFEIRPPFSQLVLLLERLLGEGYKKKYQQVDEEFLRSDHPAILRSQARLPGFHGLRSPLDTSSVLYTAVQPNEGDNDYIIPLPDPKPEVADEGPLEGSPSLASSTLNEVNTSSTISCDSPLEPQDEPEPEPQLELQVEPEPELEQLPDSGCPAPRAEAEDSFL
UniProt Q15118, whole entry, looked up: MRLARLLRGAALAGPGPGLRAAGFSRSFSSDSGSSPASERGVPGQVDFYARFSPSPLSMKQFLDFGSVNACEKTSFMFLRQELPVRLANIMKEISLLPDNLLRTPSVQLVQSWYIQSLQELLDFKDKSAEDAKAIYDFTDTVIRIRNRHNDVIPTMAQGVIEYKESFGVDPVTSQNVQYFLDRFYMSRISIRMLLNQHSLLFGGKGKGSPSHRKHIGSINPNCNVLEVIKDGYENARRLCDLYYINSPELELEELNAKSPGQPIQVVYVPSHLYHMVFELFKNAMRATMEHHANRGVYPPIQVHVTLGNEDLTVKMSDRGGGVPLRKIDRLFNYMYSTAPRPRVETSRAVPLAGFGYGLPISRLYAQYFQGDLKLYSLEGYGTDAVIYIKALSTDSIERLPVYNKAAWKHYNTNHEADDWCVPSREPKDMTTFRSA
UniProt O15530: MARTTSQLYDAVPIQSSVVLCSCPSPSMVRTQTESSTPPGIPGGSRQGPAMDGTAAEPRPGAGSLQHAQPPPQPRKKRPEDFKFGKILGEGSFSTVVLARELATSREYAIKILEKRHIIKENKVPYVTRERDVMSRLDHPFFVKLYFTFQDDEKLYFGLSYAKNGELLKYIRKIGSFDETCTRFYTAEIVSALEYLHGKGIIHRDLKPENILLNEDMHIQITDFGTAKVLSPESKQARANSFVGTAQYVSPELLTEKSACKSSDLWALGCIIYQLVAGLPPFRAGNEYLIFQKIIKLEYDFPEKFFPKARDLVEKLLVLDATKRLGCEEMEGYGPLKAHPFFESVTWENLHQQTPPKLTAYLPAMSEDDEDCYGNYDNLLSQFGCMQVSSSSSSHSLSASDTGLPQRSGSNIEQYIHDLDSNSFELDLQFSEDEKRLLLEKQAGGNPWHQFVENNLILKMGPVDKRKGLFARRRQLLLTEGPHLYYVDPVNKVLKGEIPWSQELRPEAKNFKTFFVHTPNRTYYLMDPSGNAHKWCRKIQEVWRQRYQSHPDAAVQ
UniProt Q9UBF8: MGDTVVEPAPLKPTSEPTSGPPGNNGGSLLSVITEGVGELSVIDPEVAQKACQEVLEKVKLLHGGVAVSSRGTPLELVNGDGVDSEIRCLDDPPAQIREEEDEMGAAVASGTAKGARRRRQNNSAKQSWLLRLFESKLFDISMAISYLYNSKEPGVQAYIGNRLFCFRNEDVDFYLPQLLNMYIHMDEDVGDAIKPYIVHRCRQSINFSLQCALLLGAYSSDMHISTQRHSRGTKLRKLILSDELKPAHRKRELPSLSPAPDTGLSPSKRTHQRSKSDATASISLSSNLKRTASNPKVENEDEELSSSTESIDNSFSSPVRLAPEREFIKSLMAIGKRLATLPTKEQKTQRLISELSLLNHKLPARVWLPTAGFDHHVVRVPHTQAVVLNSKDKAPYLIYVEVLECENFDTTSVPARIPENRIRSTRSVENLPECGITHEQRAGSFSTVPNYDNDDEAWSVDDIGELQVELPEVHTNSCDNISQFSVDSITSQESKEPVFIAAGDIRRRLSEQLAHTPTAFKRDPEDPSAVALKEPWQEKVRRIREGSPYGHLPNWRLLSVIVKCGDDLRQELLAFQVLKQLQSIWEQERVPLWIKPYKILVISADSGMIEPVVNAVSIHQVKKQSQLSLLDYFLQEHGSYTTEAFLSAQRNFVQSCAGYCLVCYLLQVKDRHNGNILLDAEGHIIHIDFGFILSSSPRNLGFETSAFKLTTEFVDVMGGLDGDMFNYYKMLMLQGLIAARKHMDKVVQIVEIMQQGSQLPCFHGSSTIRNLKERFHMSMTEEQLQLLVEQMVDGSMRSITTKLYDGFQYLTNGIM
UniProt P53350, whole entry: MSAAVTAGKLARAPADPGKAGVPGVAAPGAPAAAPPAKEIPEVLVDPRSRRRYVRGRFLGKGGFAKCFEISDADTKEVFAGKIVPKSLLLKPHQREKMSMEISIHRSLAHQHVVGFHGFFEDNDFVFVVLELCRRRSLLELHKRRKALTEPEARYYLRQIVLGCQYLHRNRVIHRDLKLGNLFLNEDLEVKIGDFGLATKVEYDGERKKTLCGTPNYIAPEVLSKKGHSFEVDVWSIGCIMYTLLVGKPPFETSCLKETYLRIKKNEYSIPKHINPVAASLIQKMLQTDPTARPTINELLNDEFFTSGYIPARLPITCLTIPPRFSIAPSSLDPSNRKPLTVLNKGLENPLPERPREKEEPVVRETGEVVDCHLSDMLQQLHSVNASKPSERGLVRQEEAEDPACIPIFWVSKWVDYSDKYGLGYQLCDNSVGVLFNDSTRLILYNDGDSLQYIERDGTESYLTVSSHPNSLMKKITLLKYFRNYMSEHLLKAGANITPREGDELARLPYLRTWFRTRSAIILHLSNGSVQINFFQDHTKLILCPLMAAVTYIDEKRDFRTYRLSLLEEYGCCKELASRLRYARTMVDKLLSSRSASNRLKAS

What was measured:
Experiment in all cases: kinase-Nluc reporter destabilization hit call (1 = scored as downregulated) (binary); higher = compound decreases kinase abundance
Conditions in all cases: K562; 2-18 h
MAPK1 = MAPK1 (UniProt P28482)
MAPK4 = MAPK4 (UniProt P31152)
MAPKAPK2 = MAPKAPK2 (UniProt P49137)
MKNK1 = MKNK1 (UniProt Q9BUB5)
NTRK2 = NTRK2 (UniProt Q16620)
NTRK3 = NTRK3 (UniProt Q16288)
PAK4 = PAK4 (UniProt O96013)
PBK = PBK (UniProt Q96KB5)
PDGFRB = PDGFRB (UniProt P09619)
PDK1 = PDK1 (UniProt Q15118)
PDPK1 = PDPK1 (UniProt O15530)
PIK4CA = PIK4CA (UniProt P42356)
PIK4CB = PIK4CB (UniProt Q9UBF8)
PLK1 = PLK1 (UniProt P53350)
PRKAA1 = PRKAA1 (UniProt Q13131)
PRKCA = PRKCA (UniProt P17252)
PTK2 = PTK2 (UniProt Q05397)
PTK2B = PTK2B (UniProt Q14289)
RAF1 = RAF1 (UniProt P04049)
[1] = target: RAF1_S257L (clone: RAF1_mut) (UniProt P04049)

Measured: kinase-Nluc reporter destabilization hit call

CC(C)n1nc(C#Cc2ccccc2)c2c(N)ncnc21 (10 µM)
inactive: MAPK1 = 0 | MAPK4 = 0 | MAPKAPK2 = 0 | MKNK1 = 0 | NTRK2 = 0 | NTRK3 = 0 | PAK4 = 0 | PBK 0 | PDGFRB 0 | PDK1 = 0 | PDPK1 = 0 | PIK4CA 0 | PIK4CB 0 | PLK1 = 0 | PRKAA1 = 0 | PRKCA 0 | PTK2 = 0 | PTK2B 0 | RAF1 = 0 | [1] 0

O=C1NCCSc2c1sc1ccc(O)cc21 (2.5 µM)
inactive: MAPK1 = 0 | MAPK4 = 0 | MAPKAPK2 = 0 | MKNK1 = 0 | NTRK2 = 0 | NTRK3 = 0 | PAK4 = 0 | PBK 0 | PDGFRB 0 | PDK1 = 0 | PDPK1 = 0 | PIK4CA 0 | PIK4CB 0 | PLK1 = 0 | PRKAA1 = 0 | PRKCA 0 | PTK2 = 0 | PTK2B 0 | RAF1 = 0 | [1] 0

O=C(Nc1nccs1)C(c1cc(F)ccc1O)N1Cc2ccc(-c3ccc(N4CCNCC4)cc3)cc2C1=O (racemic) (10 µM)
inactive: MAPK1 = 0 | MAPK4 = 0 | MAPKAPK2 = 0 | MKNK1 = 0 | NTRK2 = 0 | NTRK3 = 0 | PAK4 = 0 | PBK 0 | PDGFRB 0 | PDK1 = 0 | PDPK1 = 0 | PIK4CA 0 | PIK4CB 0 | PLK1 = 0 | PRKAA1 = 0 | PRKCA 0 | PTK2 = 0 | PTK2B 0 | RAF1 = 0 | [1] 0

CN(C)CCCn1cc(C2=C(c3c[nH]c4ccccc34)C(=O)NC2=O)c2ccccc21 [Bisindolylmaleimide I] (2.5 µM)
inactive: MAPK1 = 0 | MAPK4 = 0 | MAPKAPK2 = 0 | MKNK1 = 0 | NTRK2 = 0 | NTRK3 = 0 | PAK4 = 0 | PBK 0 | PDGFRB 0 | PDK1 = 0 | PDPK1 = 0 | PIK4CA 0 | PIK4CB 0 | PLK1 = 0 | PRKAA1 = 0 | PRKCA 0 | PTK2 = 0 | PTK2B 0 | RAF1 = 0 | [1] 0

C[C@@H]1O[C@@H](O[C@H]2[C@H](OC(=O)[C@]34CCC(C)(C)C[C@H]3C3=CC[C@@H]5[C@@]6(C)C[C@H](O)[C@H](O[C@@H]7O[C@H](CO)[C@@H](O)[C@H](O)[C@H]7O)C(CO)(CO)[C@@H]6CC[C@@]5(C)[C@]3(C)C[C@H]4O)OC[C@H](O)[C@@H]2O)[C@H](O)[C@H](O)[C@H]1O[C@@H]1OC[C@@H](O)[C@H](O[C@@H]2OC[C@](O)(CO)[C@H]2O)[C@H]1O [Platycodin D] (10 µM)
inactive: MAPK1 = 0 | MAPK4 = 0 | MAPKAPK2 = 0 | MKNK1 = 0 | NTRK2 = 0 | NTRK3 = 0 | PAK4 = 0 | PBK 0 | PDGFRB 0 | PDK1 = 0 | PDPK1 = 0 | PIK4CA 0 | PIK4CB 0 | PLK1 = 0 | PRKAA1 = 0 | PRKCA 0 | PTK2 = 0 | PTK2B 0 | RAF1 = 0 | [1] 0

Cc1ccc(CNC(=O)N2CCC[C@]3(CCN(Cc4ccc(Cl)c(Cl)c4)C3)C2)cc1 (10 µM)
inactive: MAPK1 = 0 | MAPK4 = 0 | MAPKAPK2 = 0 | MKNK1 = 0 | NTRK2 = 0 | NTRK3 = 0 | PAK4 = 0 | PBK 0 | PDGFRB 0 | PDK1 = 0 | PDPK1 = 0 | PIK4CA 0 | PIK4CB 0 | PLK1 = 0 | PRKAA1 = 0 | PRKCA 0 | PTK2 = 0 | PTK2B 0 | RAF1 = 0 | [1] 0

COc1ccc(C(=O)c2cn(C(C)C)c3ncnc(N)c23)cc1NC(=O)Nc1ccc(Cl)cc1Cl (10 µM)
inactive: MAPK1 = 0 | MAPK4 = 0 | MAPKAPK2 = 0 | MKNK1 = 0 | NTRK2 = 0 | NTRK3 = 0 | PAK4 = 0 | PBK 0 | PDGFRB 0 | PDK1 = 0 | PDPK1 = 0 | PIK4CA 0 | PIK4CB 0 | PLK1 = 0 | PRKAA1 = 0 | PRKCA 0 | PTK2 = 0 | PTK2B 0 | RAF1 = 0 | [1] 0

Cc1cccc(Cn2nc(C)c3c(NC(=O)c4csc5c(N)ncnc45)cccc32)n1 (10 µM)
inactive: MAPK1 = 0 | MAPK4 = 0 | MAPKAPK2 = 0 | MKNK1 = 0 | NTRK2 = 0 | NTRK3 = 0 | PAK4 = 0 | PBK 0 | PDGFRB 0 | PDK1 = 0 | PDPK1 = 0 | PIK4CA 0 | PIK4CB 0 | PLK1 = 0 | PRKAA1 = 0 | PRKCA 0 | PTK2 = 0 | PTK2B 0 | RAF1 = 0 | [1] 0

CNC(=O)c1c(C)oc2cc(Oc3ncnc4cc(OC)c(OC)cc34)ccc12 [Fruquintinib] (10 µM)
inactive: MAPK1 = 0 | MAPK4 = 0 | MAPKAPK2 = 0 | MKNK1 = 0 | NTRK2 = 0 | NTRK3 = 0 | PAK4 = 0 | PBK 0 | PDGFRB 0 | PDK1 = 0 | PDPK1 = 0 | PIK4CA 0 | PIK4CB 0 | PLK1 = 0 | PRKAA1 = 0 | PRKCA 0 | PTK2 = 0 | PTK2B 0 | RAF1 = 0 | [1] 0

CC(=O)Nc1nc(C)c(-c2ccc(Cl)c(S(=O)(=O)NCCO)c2)s1 (10 µM)
inactive: MAPK1 = 0 | MAPK4 = 0 | MAPKAPK2 = 0 | MKNK1 = 0 | NTRK2 = 0 | NTRK3 = 0 | PAK4 = 0 | PBK 0 | PDGFRB 0 | PDK1 = 0 | PDPK1 = 0 | PIK4CA 0 | PIK4CB 0 | PLK1 = 0 | PRKAA1 = 0 | PRKCA 0 | PTK2 = 0 | PTK2B 0 | RAF1 = 0 | [1] 0

O=C(CCc1ccc2n1[B-](F)(F)[N+]1=C(c3ccc[nH]3)C=CC1=C2)ON1C(=O)CCC1=O [Py-BODIPY-NHS ester] (2.5 µM)
inactive: MAPK1 = 0 | MAPK4 = 0 | MAPKAPK2 = 0 | MKNK1 = 0 | NTRK2 = 0 | NTRK3 = 0 | PAK4 = 0 | PBK 0 | PDGFRB 0 | PDK1 = 0 | PDPK1 = 0 | PIK4CA 0 | PIK4CB 0 | PLK1 = 0 | PRKAA1 = 0 | PRKCA 0 | PTK2 = 0 | PTK2B 0 | RAF1 = 0 | [1] 0

Nc1nc2c(ncn2COCCO)c(=O)[nH]1 [Acyclovir] (10 µM)
inactive: MAPK1 = 0 | MAPK4 = 0 | MAPKAPK2 = 0 | MKNK1 = 0 | NTRK2 = 0 | NTRK3 = 0 | PAK4 = 0 | PBK 0 | PDGFRB 0 | PDK1 = 0 | PDPK1 = 0 | PIK4CA 0 | PIK4CB 0 | PLK1 = 0 | PRKAA1 = 0 | PRKCA 0 | PTK2 = 0 | PTK2B 0 | RAF1 = 0 | [1] 0

CCC(=O)N1CC[C@H](Nc2ncnc3c2CN(c2cnc(OC)c(C(F)(F)F)c2)CC3)C1 [Leniolisib] (10 µM)
inactive: MAPK1 = 0 | MAPK4 = 0 | MAPKAPK2 = 0 | MKNK1 = 0 | NTRK2 = 0 | NTRK3 = 0 | PAK4 = 0 | PBK 0 | PDGFRB 0 | PDK1 = 0 | PDPK1 = 0 | PIK4CA 0 | PIK4CB 0 | PLK1 = 0 | PRKAA1 = 0 | PRKCA 0 | PTK2 = 0 | PTK2B 0 | RAF1 = 0 | [1] 0

COC(=O)/C=C/c1ccc(O)c(OC)c1 [Ferulic acid methyl ester] (10 µM)
inactive: MAPK1 = 0 | MAPK4 = 0 | MAPKAPK2 = 0 | MKNK1 = 0 | NTRK2 = 0 | NTRK3 = 0 | PAK4 = 0 | PBK 0 | PDGFRB 0 | PDK1 = 0 | PDPK1 = 0 | PIK4CA 0 | PIK4CB 0 | PLK1 = 0 | PRKAA1 = 0 | PRKCA 0 | PTK2 = 0 | PTK2B 0 | RAF1 = 0 | [1] 0
